The values that follow come from article PMC9095880, “AIMP2-DX2 provides therapeutic interface to control KRAS-driven tumorigenesis” (Nature Communications, 2022).

The chains behind the UniProt entries cited, without tags or fusion partners.
UniProt Q8N726: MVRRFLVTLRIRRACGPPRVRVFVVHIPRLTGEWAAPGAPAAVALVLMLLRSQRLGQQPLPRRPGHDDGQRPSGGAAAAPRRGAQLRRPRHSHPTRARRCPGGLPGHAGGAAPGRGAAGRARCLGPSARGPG

These are yes or no findings as the source states them, for the method shown. For part of these data: Binding seen in cells or lysates may run through a third protein. Some entries that bind do so weakly or less than the wild type.

Test [1] has as its target T1, endogenous DX2 (human (endogenous in DLD-1 and H460)) (UniProt Q13155).
T1 sequence: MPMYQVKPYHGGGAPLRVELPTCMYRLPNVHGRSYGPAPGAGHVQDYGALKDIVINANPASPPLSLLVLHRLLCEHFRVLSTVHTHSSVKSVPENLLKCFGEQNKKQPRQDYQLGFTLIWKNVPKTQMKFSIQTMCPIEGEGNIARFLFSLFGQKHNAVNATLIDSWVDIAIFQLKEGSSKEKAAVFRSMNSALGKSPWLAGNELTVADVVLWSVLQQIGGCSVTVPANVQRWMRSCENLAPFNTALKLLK
Kind of test: co-IP; immunoprecipitation over time after EGF; cytosol and nucleus fractions; blot intensities quantified relative to the maximum.

The target of test [2] is T1, endogenous DX2 (human (endogenous in DLD-1 and H460)). Nature of the test: co-IP; endogenous immunoprecipitation in H460 cells treated with DXI.
Another test addresses HRAS protein (purified) (UniProt P01112). Kind of test: pull-down; in vitro pull-down with purified proteins (Supplementary Fig. 8b); bait not stated; both purified.

On to p14ARF (from UniProt Q8N726 1-132), for which the binding result in test [1] and in test [2] was “binds” in each case. For “Smurf2 protein (purified) (from UniProt Q9HAU4 1-748) (enzyme)”, in the test with HRAS protein (purified), the binding entry is recorded as “binds”.
